Assay results reported in PubChem BioAssay AID258 (DTP/NCI, 2004).
The list shows only some results of the screen, not a fair sample: it covers a few groups of compounds. Other doses and runs of a compound may be missing. T/C is the treated group as % of the vehicle group. Where survival is the endpoint, this PubChem deposit counts one and a half times the control or more as active, and values a quarter to a half above the control carry no call in these data; other NCI protocols may use other cut-offs. Schedules are NCI's codes, read here as Q, the interval in days (D) or hours (H), X, the number of doses. Some T/C values are marked as having no survivor count here; that says nothing about deaths at the dose. Some schedules carry Z or #; the key to these is not given.

Test system: CD2F1 mice, L1210 leukemia sc, survival T/C
Assay: NCI In Vivo Anticancer Drug Screen. Data for tumor model L1210 Leukemia (subcutaneous) in CD2F1 (CDF1) mice
Settings: T/C endpoint: median survival time, higher T/C = longer survival
Description: The antitumor activity of compounds was measured in mice bearing transplantable tumors. Survival or tumor size were measured and the results are expressed as the measurement made in the treated group (T) divided by the measurement made in the vehicle treated control group (C). The tumor model used in this assay is L1210 Leukemia (subcutaneous) in CD2F1 (CDF1) mice

ClCCN(CCCl)Cc1nc2ccc(Cl)cc2[nH]1
T/C (dose: 8.4 mg/kg/injection, schedule: Q01DX Z (sc), vehicle: methylcellulose (MC)): 100 % of control [survivor count not shown]
T/C (dose: 14.0 mg/kg/injection, schedule: Q01DX Z (sc), vehicle: methylcellulose (MC)): 100 % of control [survivor count not shown]
T/C (dose: 23.0 mg/kg/injection, schedule: Q01DX Z (sc), vehicle: methylcellulose (MC)): 100 % of control [survivor count not shown]
T/C (dose: 39.0 mg/kg/injection, schedule: Q01DX Z (sc), vehicle: methylcellulose (MC)): 95 % of control [survivor count not shown]

Nc1ncnc2c1ncn2CCN(CCCl)CCCl
T/C (dose: 1.85 mg/kg/injection, schedule: Q01DX Z (sc), vehicle: saline): 100 % of control [survivor count not shown]
T/C (dose: 3.75 mg/kg/injection, schedule: Q01DX Z (sc), vehicle: saline): 94 % of control [survivor count not shown]
T/C (dose: 7.5 mg/kg/injection, schedule: Q01DX Z (sc), vehicle: saline): 105 % of control [survivor count not shown]
T/C (dose: 15.0 mg/kg/injection, schedule: Q01DX Z (sc), vehicle: saline): 117 % of control [survivor count not shown]
T/C (dose: 30.0 mg/kg/injection, schedule: Q01DX Z (sc), vehicle: saline): 105 % of control [survivor count not shown]

O=C(O)c1ccc(N(CCCl)CCCl)cc1
T/C (dose: 23.4 mg/kg/injection, schedule: Q01DX Z (sc), vehicle: methylcellulose (MC)): 105 % of control [survivor count not shown]
T/C (dose: 64.8 mg/kg/injection, schedule: Q01DX Z (sc), vehicle: methylcellulose (MC)): 105 % of control [survivor count not shown]
T/C (dose: 108.0 mg/kg/injection, schedule: Q01DX Z (sc), vehicle: methylcellulose (MC)): 105 % of control [survivor count not shown]

NCCN(CCCl)CCCl
T/C (dose: 0.5 mg/kg/injection, schedule: Q01DX009 (ip), vehicle: saline): 103 % of control
T/C (dose: 1.0 mg/kg/injection, schedule: Q01DX009 (ip), vehicle: saline): 101 % of control
T/C (dose: 2.0 mg/kg/injection, schedule: Q01DX009 (ip), vehicle: saline): 135 % of control
